We go through six molecules from paper doi:10.1101/2022.05.16.492168.

The chains are these.
T1: GFP-COR28 (COLD REGULATED GENE 28) (Arabidopsis thaliana) (UniProt Q8L983)
T1 sequence: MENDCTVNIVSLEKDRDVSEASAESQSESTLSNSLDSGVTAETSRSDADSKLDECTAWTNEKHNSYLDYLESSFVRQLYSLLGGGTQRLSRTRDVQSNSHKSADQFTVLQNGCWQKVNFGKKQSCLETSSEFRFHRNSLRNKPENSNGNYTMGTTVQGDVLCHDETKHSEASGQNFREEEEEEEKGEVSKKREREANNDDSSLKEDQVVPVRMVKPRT

T2: LNK1-HFC (NIGHT LIGHT INDUCIBLE AND CLOCK REGULATED 1 with 3x-FLAG-6x-His C-terminal tag) (Arabidopsis thaliana) (UniProt A8MQN2)
T2 sequence: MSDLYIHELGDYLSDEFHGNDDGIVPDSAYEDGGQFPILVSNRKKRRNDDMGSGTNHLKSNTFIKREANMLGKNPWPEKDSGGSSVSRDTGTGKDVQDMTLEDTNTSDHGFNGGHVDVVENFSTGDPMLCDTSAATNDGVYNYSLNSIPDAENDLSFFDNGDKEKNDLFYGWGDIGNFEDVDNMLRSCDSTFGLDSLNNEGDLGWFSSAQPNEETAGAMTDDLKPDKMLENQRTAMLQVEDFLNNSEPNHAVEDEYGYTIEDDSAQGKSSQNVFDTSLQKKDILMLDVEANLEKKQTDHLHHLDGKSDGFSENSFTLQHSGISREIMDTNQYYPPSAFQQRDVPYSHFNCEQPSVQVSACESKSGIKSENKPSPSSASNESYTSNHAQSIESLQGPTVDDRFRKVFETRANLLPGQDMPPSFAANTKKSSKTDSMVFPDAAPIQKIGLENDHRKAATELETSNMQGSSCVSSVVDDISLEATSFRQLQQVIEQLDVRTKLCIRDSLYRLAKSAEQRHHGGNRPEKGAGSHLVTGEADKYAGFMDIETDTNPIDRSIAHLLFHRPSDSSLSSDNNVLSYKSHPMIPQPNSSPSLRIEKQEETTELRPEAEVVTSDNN

T3: LNK2-HFC (NIGHT LIGHT INDUCIBLE AND CLOCK REGULATED 2 with 3x-FLAG-6x-His C-terminal tag) (Arabidopsis thaliana) (UniProt F4JCX9)
T3 sequence: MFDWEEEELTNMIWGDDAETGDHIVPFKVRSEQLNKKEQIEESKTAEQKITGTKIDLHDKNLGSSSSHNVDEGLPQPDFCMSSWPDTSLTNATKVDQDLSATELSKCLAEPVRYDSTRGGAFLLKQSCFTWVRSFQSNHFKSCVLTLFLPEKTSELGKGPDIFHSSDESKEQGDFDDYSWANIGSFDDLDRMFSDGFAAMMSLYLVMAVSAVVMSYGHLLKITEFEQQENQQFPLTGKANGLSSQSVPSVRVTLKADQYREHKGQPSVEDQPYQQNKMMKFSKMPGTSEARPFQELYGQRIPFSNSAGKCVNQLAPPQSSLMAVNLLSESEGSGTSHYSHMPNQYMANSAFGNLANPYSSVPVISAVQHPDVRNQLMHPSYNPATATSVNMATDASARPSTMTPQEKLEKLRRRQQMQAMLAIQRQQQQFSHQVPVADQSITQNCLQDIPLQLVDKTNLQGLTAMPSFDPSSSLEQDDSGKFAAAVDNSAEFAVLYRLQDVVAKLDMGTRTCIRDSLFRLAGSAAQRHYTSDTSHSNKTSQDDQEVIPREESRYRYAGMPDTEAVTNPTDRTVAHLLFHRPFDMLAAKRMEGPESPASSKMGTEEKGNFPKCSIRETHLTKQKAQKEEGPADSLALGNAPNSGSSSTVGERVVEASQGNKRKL

B1: SPA3 (protein, UniProt Q9LJR3 1-845)
chain: MEGSSNSNSRGFNTSGVSDRNTEFLPVERLTTRSKPSSHVDEYVRSLFGSTSTHKSGEDDSLGIDPFVRSLEWGDVSLRQWLDKPERSVDVFECLHVFRQIVEIVNAAHSQGIVVHNVRPSCFVMSSFNHVSFIESASCSDSGSDSLEDGPISQKEIGSSRREEAVSKAIAIEEKGVYNKLLERKIEKLEEEKTQPFPMKHILAMETSWYTSPEEDFGSSSTCASDVYRLGVLLFELFCPVPSREEKSRTMSSLRHRVLPPQILLKCPKEASFCLWLLHPEPTCRPSMSDLLQSEFITEPRDNLEEREAAIELRDRIEEQESLLEFLLLIQQRKQESAYRLQDTVSLLSSDIEQVVKRQLILKKRGSSLSDFSKDDHQYTSGQPLMSFQANEEPSAFLASRKRVRQGILALENGVEVDEESQGSTLLESSRLMRNFKKLESVYFLTRRRQMKAAASGKSLTRHSPLSSENGRGSMIVSEKSSVSNPVAPKAFFNNDSRQGGWIDPFLEGLCRYLSFSQLRVKADLKQGDLLNSSNLVCALAFDREGELFATAGVNKKIKIFECNSIVNDNRDIHYPVVELAGRSKLSSLCWNSYIKSQIASSNFDGVVQIWDVARSQLVTEMKEHKKRVWSIDISSADPTLLASGSDDGTVKLWSINQGVSIGTIKTKANVCCVQFPSDSGRSLAFGSADHKVYYYDLRNPKIPLCTMIGHSKTVSYVKFVDSSTLVSSSTDNTLKLWDLSMSASGINESPLHSFTGHTNLKNFVGLSVSDGYIATGSETNEVFVYHKAFPMPVMSYMFNNTDSMSGLEVDDASQFISSICWRGQSSTLVAANSNGNIKILEMMT
B2: SPA2 (protein, UniProt Q9T014 1-1036)
chain: MMDEGSVGDVSRIDEADVAHLQFKNSEQSFKPENIEVREVKEVQVQREAGSPDCSYGVIADFLDGKNGGDHVELIGNEPCSSRQNTNDEGDVVEELTVKTCEGSSMAIVGRPSSRARLEMNRSQFLHRFPLDGDLPGSSSMSKKVIDRGTVSILRNAGKMSLPETSNGQLAIIAVNGEANEHLTNVERNPVPVEALSHEGIKTKMLSQSGFSQFFVRKTLKGKGVTFRGPPNNRSKARNMDQQTVASSGSALVIANTSAKISSSIPLAAYDGLPCLPSNTSKPSSCANPSDTHRGCGGEGLSLREWLKSERQEVNKAECMYIFRQIVDHVDCSHSQGVVLCDLRPSSFKIFKENAVKYVVSGSQRESFDSNMNKETLSQLENPLVRRRLGDTSSLSIPAKKQKSSGPSSRQWPMFQRAGGVNIQTENNDGAIQEFHFRSSQPHCSTVACPFTSVSEQLEEKWYASPEELRGDMRSASSNIYSLGILLYELLSQFQCERAREAAMSDIRHRILPPKFLSENPKEAGFCLWLLHPESSCRPSTRDILQSEVVNGIPDLYAEGLSLSIEQEDTESELLQHFLFLSQEKRQKHAGNLMEEIASVEADIEEIVKRRCAIGPPSLEEASSSSPASSVPEMRLIRNINQLESAYFAARIDAHLPEARYRLRPDRDLLRNSDNTVAEVENSETWSSDDRVGAFFDGLCKYARYSKFETRGVLRTSELNNTSNVICSLGFDRDEDYFATAGVSKKIKIYEFNSLFNESVDIHYPAIEMPNRSKLSGVCWNNYIRNYLASSDYDGIVKLWDVTTGQAISHFIEHEKRAWSVDFSEACPTKLASGSDDCSVKLWNINERNCLGTIRNIANVCCVQFSPQSSHLLAFGSSDFRTYCYDLRNLRTPWCILSGHNKAVSYAKFLDNETLVTASTDNTLKLWDLKKTTHGGLSTNACSLTFGGHTNEKNFVGLSTSDGYIACGSETNEVYAYHRSLPMPITSYKFGSIDPISGKEIEEDNNLFVSSVCWRKRSNMVVSASSNGSIKVLQLV
B3: SPA4 (protein, UniProt Q94BM7 1-794)
chain: MKGSSESSSRGLNNTSGVSEFCTDGSKSLSHIDYVRSLLGSHKEANLGGLDDDSIVRALECEDVSLRQWLDNPDRSVDAFECFHVFRQIVEIVNAAHSQGIVVHNVRPSCFVMSSFNNVSFIESASCSDSGSDEDATTKSREIGSSRQEEILSERRSKQQEEVKKQPFPMKQILAMEMSWYTSHEEDNGSLCNCASDIYRLGVLLFELFCPVSSREEKSRTMSSLRHRVLPPQILLNWPKEASFCLWLLHPEPSCRPSMSELLQSEFINEPRENLEEREAAMELRDRIEEQELLLEFLFLIQQRKQEAADKLQDTISLLSSDIDQVVKRQLVLQQKGRDVRSFLASRKRIRQGAETTAAEEENDDNSIDEESKLDDTLESTLLESSRLMRNLKKLESVYFATRYRQIKAATAAEKPLARYYSALSCNGRSSEKSSMSQPSKDPINDSRQGGWIDPFLEGLCKYLSFSKLRVKADLKQGDLLNSSNLVCAIGFDRDGEFFATAGVNKKIKIFECESIIKDGRDIHYPVVELASRSKLSGICWNSYIKSQVASSNFEGVVQVWDVARNQLVTEMKEHEKRVWSIDYSSADPTLLASGSDDGSVKLWSINQGVSIGTIKTKANICCVQFPSETGRSLAFGSADHKVYYYDLRNPKLPLCTMIGHHKTVSYVRFVDSSTLVSSSTDNTLKLWDLSMSISGINETPLHSFMGHTNVKNFVGLSVSDGYIATGSETNEVFVYHKAFPMPVLSYKFKTIDPVSELEVDDASQFISSVCWRGQSSTLVAANSTGNIKILEMV
B4: REVEILLE 3 (RVE3) (protein, UniProt Q6R0H0 1-287)
chain: MVTVNPSQAHCLPMKMSLPGFNTLPHTATTIPVSIRSNRTMSFFEDPTKKVRKPYTITKSRENWTEQEHDKFLEALHLFDRDWKKIKAFVGSKTVIQIRSHAQKYFLKVQKNGTKEHLPPPRPKRKANHPYPQKAPKFTLSSSNALFQHDYLYNTNSHPVISTTRKHGLVHCDVSIPSSVIKEEFGVSENCCSTSSSRDKQRTRIVTETNDQESCGKPHRVAPNFAEVYNFIGSVFDPKTTGHVKRLKEMDPINLETVLLLMKNLSVNLTSPEFDEQRKLISSYNAS
B5: REVEILLE 8 (RVE8), endogenous (protein, UniProt Q8RWU3 1-298)
chain: MSSSPSRNPTNAEAPPPPPTSTDAVAEGSSKKVRKPYTITKSRESWTEEEHDKFLEALQLFDRDWKKIEDFVGSKTVIQIRSHAQKYFLKVQKNGTLAHVPPPRPKRKAAHPYPQKASKNAQMPLQVSTSFTTTRNGDMPGYASWDDASMLLNRVISPQHELATLRGAEADIGSKGLLNVSSPSTSGMGSSSRTVSGSEIVRKAKQPPVLHGVPDFAEVYNFIGSVFDPETRGHVEKLKEMDPINFETVLLLMRNLTVNLSNPDLESTRKVLLSYDNVTTELPSVVSLVKNSTSDKSA
B6: REVEILLE 4 (RVE4) (protein, UniProt Q6R0G4 1-293)
chain: MTSTNPVVAEVIPAETSTDATETTIATTEAGEAPEKKVRKAYTITKSRESWTEGEHDKFLEALQLFDRDWKKIEDFVGSKTVIQIRSHAQKYFLKVQKNGTLAHVPPPRPKRKAAHPYPQKASKNAQMSLHVSMSFPTQINNLPGYTPWDDDTSALLNIAVSGVIPPEDELDTLCGAEVDVGSNDMISETSPSASGIGSSSRTLSDSKGLRLAKQAPSMHGLPDFAEVYNFIGSVFDPDSKGRMKKLKEMDPINFETVLLLMRNLTVNLSNPDFEPTSEYVDAAEEGHEHLSS

These are yes or no findings as the source states them, for the method shown. In cells and extracts the contact can be indirect. Here binding means that the protein was enriched with, or labelled near, the bait; the list need not be complete. Sequences can lack the tags named with a protein.

For the first assay, the target named is T1, GFP-COR28 (COLD REGULATED GENE 28) (Arabidopsis thaliana). As to the kind of experiment: affinity purification with mass spectrometry.
Consider B1, for which the binding result is on record as “binds”.

B2: the binding entry is given as “binds”.

As for B3, the binding entry is listed as “binds”.

The next assay addresses T2, LNK1-HFC (NIGHT LIGHT INDUCIBLE AND CLOCK REGULATED 1 with 3x-FLAG-6x-His C-terminal tag) (Arabidopsis thaliana). As to the kind of experiment: affinity purification with mass spectrometry.
As to B4, the binding entry is listed as “binds”.

On to B5, for which the binding entry is “binds”.

For the molecule B6, the binding result is “binds”.

The next assay has as its target T3, LNK2-HFC (NIGHT LIGHT INDUCIBLE AND CLOCK REGULATED 2 with 3x-FLAG-6x-His C-terminal tag) (Arabidopsis thaliana). As to the kind of experiment: affinity purification with mass spectrometry.
Turning to B4, the binding result is reported as “binds”.

Consider B5, for which the binding result is given as “binds”.

As for B6, the binding result is recorded as “binds”.
